Publication PMC7139571

Protein sequences, listed by entry. Tags and fused reporters are not part of them. Residues count along the entry.
UniProt P42771: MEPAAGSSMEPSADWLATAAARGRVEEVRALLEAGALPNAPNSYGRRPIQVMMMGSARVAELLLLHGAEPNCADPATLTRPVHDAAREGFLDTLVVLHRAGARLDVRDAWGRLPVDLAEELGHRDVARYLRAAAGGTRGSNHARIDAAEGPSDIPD
UniProt Q07021, residues 74-282: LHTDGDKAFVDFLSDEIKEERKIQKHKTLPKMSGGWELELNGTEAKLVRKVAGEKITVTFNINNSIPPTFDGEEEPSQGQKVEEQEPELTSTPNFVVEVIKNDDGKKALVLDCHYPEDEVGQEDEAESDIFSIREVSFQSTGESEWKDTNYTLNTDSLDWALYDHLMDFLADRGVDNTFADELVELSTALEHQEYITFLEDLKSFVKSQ
UniProt O75643: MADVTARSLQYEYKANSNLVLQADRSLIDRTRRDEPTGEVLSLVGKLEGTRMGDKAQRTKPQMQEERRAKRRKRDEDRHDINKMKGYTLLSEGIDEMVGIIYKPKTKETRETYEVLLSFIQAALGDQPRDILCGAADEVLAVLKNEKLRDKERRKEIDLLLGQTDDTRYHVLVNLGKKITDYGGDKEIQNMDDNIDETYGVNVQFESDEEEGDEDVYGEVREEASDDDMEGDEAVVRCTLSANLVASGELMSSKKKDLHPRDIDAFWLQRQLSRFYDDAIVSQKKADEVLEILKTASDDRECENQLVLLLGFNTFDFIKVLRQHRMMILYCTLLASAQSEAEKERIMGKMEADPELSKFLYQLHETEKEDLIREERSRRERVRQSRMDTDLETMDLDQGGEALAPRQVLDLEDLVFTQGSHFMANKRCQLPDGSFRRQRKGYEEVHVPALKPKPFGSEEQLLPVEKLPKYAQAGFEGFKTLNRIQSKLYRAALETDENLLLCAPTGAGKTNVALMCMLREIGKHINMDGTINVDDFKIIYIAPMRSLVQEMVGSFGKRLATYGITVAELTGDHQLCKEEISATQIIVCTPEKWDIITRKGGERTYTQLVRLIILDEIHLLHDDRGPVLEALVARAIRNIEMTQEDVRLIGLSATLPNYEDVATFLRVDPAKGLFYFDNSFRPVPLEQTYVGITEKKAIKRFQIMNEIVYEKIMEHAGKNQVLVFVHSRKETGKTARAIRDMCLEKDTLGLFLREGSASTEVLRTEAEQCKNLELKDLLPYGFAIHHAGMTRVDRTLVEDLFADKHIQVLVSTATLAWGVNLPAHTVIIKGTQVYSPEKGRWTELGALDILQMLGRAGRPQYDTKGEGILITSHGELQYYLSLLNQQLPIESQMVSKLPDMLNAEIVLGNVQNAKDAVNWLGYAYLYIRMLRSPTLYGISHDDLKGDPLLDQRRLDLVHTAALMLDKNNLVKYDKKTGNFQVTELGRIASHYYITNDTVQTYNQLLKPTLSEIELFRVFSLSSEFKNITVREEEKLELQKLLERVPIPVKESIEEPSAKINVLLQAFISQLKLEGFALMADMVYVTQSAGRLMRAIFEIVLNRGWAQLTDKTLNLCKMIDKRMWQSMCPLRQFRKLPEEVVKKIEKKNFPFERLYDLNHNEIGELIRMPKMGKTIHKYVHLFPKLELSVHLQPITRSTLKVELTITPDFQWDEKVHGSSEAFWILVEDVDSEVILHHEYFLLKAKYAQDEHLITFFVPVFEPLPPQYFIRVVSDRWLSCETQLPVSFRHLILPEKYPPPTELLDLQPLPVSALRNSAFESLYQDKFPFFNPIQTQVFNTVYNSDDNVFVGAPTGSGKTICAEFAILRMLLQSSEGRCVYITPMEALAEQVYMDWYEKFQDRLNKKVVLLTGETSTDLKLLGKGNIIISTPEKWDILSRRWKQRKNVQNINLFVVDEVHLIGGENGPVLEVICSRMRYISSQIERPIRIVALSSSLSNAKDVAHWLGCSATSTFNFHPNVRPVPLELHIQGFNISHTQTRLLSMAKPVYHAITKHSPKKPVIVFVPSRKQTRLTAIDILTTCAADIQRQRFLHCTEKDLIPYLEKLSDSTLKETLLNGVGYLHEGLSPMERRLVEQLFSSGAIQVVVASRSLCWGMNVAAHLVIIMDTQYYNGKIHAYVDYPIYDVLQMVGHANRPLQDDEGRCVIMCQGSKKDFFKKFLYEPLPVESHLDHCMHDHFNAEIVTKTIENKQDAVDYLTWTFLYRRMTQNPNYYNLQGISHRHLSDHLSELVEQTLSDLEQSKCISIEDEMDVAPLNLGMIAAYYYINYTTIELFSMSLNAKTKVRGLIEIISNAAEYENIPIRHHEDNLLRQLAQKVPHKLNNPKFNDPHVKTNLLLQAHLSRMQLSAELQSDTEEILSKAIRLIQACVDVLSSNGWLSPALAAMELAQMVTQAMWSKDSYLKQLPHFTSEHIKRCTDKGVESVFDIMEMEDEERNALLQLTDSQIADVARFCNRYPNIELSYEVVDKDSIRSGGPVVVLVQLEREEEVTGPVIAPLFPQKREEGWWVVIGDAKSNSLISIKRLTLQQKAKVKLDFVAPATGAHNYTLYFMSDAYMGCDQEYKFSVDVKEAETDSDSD
UniProt O43823: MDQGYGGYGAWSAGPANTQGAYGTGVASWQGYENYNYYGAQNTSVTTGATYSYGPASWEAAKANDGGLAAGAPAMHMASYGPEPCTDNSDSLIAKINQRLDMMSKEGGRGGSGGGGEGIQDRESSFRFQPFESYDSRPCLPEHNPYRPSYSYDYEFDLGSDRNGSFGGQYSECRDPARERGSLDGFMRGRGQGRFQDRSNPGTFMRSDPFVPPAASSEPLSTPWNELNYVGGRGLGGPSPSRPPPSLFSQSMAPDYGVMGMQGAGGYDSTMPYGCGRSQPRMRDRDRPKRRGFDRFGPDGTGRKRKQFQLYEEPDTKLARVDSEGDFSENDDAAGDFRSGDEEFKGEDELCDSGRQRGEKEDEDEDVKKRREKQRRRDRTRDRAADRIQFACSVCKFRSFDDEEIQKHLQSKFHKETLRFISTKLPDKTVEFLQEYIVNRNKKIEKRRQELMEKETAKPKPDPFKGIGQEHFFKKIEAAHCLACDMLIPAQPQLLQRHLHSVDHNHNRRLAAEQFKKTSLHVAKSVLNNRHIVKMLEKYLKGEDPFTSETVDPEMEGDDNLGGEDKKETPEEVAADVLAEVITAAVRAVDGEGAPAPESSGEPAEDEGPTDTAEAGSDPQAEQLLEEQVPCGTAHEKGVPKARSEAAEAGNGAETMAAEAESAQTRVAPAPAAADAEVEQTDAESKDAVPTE

B1: Polyadenylate-binding protein 2 (protein, UniProt Q86U42 1-306)
chain: MAAAAAAAAAAGAAGGRGSGPGRRRHLVPGAGGEAGEGAPGGAGDYGNGLESEELEPEELLLEPEPEPEPEEEPPRPRAPPGAPGPGPGSGAPGSQEEEEEPGLVEGDPGDGAIEDPELEAIKARVREMEEEAEKLKELQNEVEKQMNMSPPPGNAGPVIMSIEEKMEADARSIYVGNVDYGATAEELEAHFHGCGSVNRVTILCDKFSGHPKGFAYIEFSDKESVRTSLALDESLFRGRQIKVIPKRTNRPGISTTDRGFPRARYRARTTNYNSSRSRFYSGFNSRPRGRVYRGRARATSWYSPY
B2: Pregnancy zone protein (protein, UniProt P20742 26-1482)
chain: TEPQYMVLVPSLLHTEAPKKGCVLLSHLNETVTVSASLESGRENRSLFTDLVAEKDLFHCVSFTLPRISASSEVAFLSIQIKGPTQDFRKRNTVLVLNTQSLVFVQTDKPMYKPGQTVRFRVVSVDENFRPRNELIPLIYLENPRRNRIAQWQSLKLEAGINQLSFPLSSEPIQGSYRVVVQTESGGRIQHPFTVEEFVLPKFEVKVQVPKIISIMDEKVNITVCGEYTYGKPVPGLATVSLCRKLSRVLNCDKQEVCEEFSQQLNSNGCITQQVHTKMLQITNTGFEMKLRVEARIREEGTDLEVTANRISEITNIVSKLKFVKVDSHFRQGIPFFAQVLLVDGKGVPIPNKLFFISVNDANYYSNATTNEQGLAQFSINTTSISVNKLFVRVFTVHPNLCFHYSWVAEDHQGAQHTANRVFSLSGSYIHLEPVAGTLPCGHTETITAHYTLNRQAMGELSELSFHYLIMAKGVIVRSGTHTLPVESGDMKGSFALSFPVESDVAPIARMFIFAILPDGEVVGDSEKFEIENCLANKVDLSFSPAQSPPASHAHLQVAAAPQSLCALRAVDQSVLLMKPEAELSVSSVYNLLTVKDLTNFPDNVDQQEEEQGHCPRPFFIHNGAIYVPLSSNEADIYSFLKGMGLKVFTNSKIRKPKSCSVIPSVSAGAVGQGYYGAGLGVVERPYVPQLGTYNVIPLNNEQSSGPVPETVRSYFPETWIWELVAVNSSGVAEVGVTVPDTITEWKAGAFCLSEDAGLGISSTASLRAFQPFFVELTMPYSVIRGEVFTLKATVLNYLPKCIRVSVQLKASPAFLASQNTKGEESYCICGNERQTLSWTVTPKTLGNVNFSVSAEAMQSLELCGNEVVEVPEIKRKDTVIKTLLVEAEGIEQEKTFSSMTCASGANVSEQLSLKLPSNVVKESARASFSVLGDILGSAMQNIQNLLQMPYGCGEQNMVLFAPNIYVLNYLNETQQLTQEIKAKAVGYLITGYQRQLNYKHQDGSYSTFGERYGRNQGNTWLTAFVLKTFAQARSYIFIDEAHITQSLTWLSQMQKDNGCFRSSGSLLNNAIKGGVEDEATLSAYVTIALLEIPLPVTNPIVRNALFCLESAWNVAKEGTHGSHVYTKALLAYAFSLLGKQNQNREILNSLDKEAVKEDNLVHWERPQRPKAPVGHLYQTQAPSAEVEMTSYVLLAYLTAQPAPTSGDLTSATNIVKWIMKQQNAQGGFSSTQDTVVALHALSRYGAATFTRTEKTAQVTVQDSQTFSTNFQVDNNNLLLLQQISLPELPGEYVITVTGERCVYLQTSMKYNILPEKEDSPFALKVQTVPQTCDGHKAHTSFQISLTISYTGNRPASNMVIVDVKMVSGFIPLKPTVKMLERSSSVSRTEVSNNHVLIYVEQVTNQTLSFSFMVLQDIPVGDLKPAIVKVYDYYETDESVVAEYIAPCSTDTEHGNV
B3: Serine/arginine repetitive matrix protein 1 (protein, UniProt Q8IYB3 1-904)
chain: MDAGFFRGTSAEQDNRFSNKQKKLLKQLKFAECLEKKVDMSKVNLEVIKPWITKRVTEILGFEDDVVIEFIFNQLEVKNPDSKMMQINLTGFLNGKNAREFMGELWPLLLSAQENIAGIPSAFLELKKEEIKQRQIEQEKLASMKKQDEDKDKRDKEEKESSREKRERSRSPRRRKSRSPSPRRRSSPVRRERKRSHSRSPRHRTKSRSPSPAPEKKEKTPELPEPSVKVKEPSVQEATSTSDILKVPKPEPIPEPKEPSPEKNSKKEKEKEKTRPRSRSRSKSRSRTRSRSPSHTRPRRRHRSRSRSYSPRRRPSPRRRPSPRRRTPPRRMPPPPRHRRSRSPVRRRRRSSASLSGSSSSSSSSRSRSPPKKPPKRTSSPPRKTRRLSPSASPPRRRHRPSPPATPPPKTRHSPTPQQSNRTRKSRVSVSPGRTSGKVTKHKGTEKRESPSPAPKPRKVELSESEEDKGGKMAAADSVQQRRQYRRQNQQSSSDSGSSSSSEDERPKRSHVKNGEVGRRRRHSPSRSASPSPRKRQKETSPRGRRRRSPSPPPTRRRRSPSPAPPPRRRRTPTPPPRRRTPSPPPRRRSPSPRRYSPPIQRRYSPSPPPKRRTASPPPPPKRRASPSPPPKRRVSHSPPPKQRSSPVTKRRSPSLSSKHRKGSSPSRSTREARSPQPNKRHSPSPRPRAPQTSSSPPPVRRGASSSPQRRQSPSPSTRPIRRVSRTPEPKKIKKAASPSPQSVRRVSSSRSVSGSPEPAAKKPPAPPSPVQSQSPSTNWSPAVPVKKAKSPTPSPSPPRNSDQEGGGKKKKKKKDKKHKKDKKHKKHKKHKKEKAVAAAAAAAVTPAAIAAATTTLAQEEPVAAPEPKKETESEAEDNLDDLEKHLREKALRSMRKAQVSPQS
B4: Testis-specific Y-encoded-like protein 2 (protein, UniProt Q9H2G4 1-693)
chain: MDRPDEGPPAKTRRLSSSESPQRDPPPPPPPPPLLRLPLPPPQQRPRLQEETEAAQVLADMRGVGLGPALPPPPPYVILEEGGIRAYFTLGAECPGWDSTIESGYGEAPPPTESLEALPTPEASGGSLEIDFQVVQSSSFGGEGALETCSAVGWAPQRLVDPKSKEEAIIIVEDEDEDERESMRSSRRRRRRRRRKQRKVKRESRERNAERMESILQALEDIQLDLEAVNIKAGKAFLRLKRKFIQMRRPFLERRDLIIQHIPGFWVKAFLNHPRISILINRRDEDIFRYLTNLQVQDLRHISMGYKMKLYFQTNPYFTNMVIVKEFQRNRSGRLVSHSTPIRWHRGQEPQARRHGNQDASHSFFSWFSNHSLPEADRIAEIIKNDLWVNPLRYYLRERGSRIKRKKQEMKKRKTRGRCEVVIMEDAPDYYAVEDIFSEISDIDETIHDIKISDFMETTDYFETTDNEITDINENICDSENPDHNEVPNNETTDNNESADDHETTDNNESADDNNENPEDNNKNTDDNEENPNNNENTYGNNFFKGGFWGSHGNNQDSSDSDNEADEASDDEDNDGNEGDNEGSDDDGNEGDNEGSDDDDRDIEYYEKVIEDFDKDQADYEDVIEIISDESVEEEGIEEGIQQDEDIYEEGNYEEEGSEDVWEEGEDSDDSDLEDVLQVPNGWANPGKRGKTG
B5: Type-1 angiotensin II receptor-associated protein (protein, UniProt Q6RW13 1-159)
chain: MELPAVNLKVILLGHWLLTTWGCIVFSGSYAWANFTILALGVWAVAQRDSIDAISMFLGGLLATIFLDIVHISIFYPRVSLTDTGRFGVGMAILSLLLKPLSCCFVYHMYRERGGELLVHTGFLGSSQDRSAYQTIDSAEAPADPFAVPEGRSQDARGY
B6: Barrier-to-autointegration factor (protein, UniProt O75531 1-89)
chain: MTTSQKHRDFVAEPMGEKPVGSLAGIGEVLGKKLEERGFDKAYVVLGQFLVLKKDEDLFREWLKDTCGANAKQSRDCFGCLREWCDAFL
B7: ATP-dependent RNA helicase DDX24 (protein, UniProt Q9GZR7 1-859)
chain: MKLKDTKSRPKQSSCGKFQTKGIKVVGKWKEVKIDPNMFADGQMDDLVCFEELTDYQLVSPAKNPSSLFSKEAPKRKAQAVSEEEEEEEGKSSSPKKKIKLKKSKNVATEGTSTQKEFEVKDPELEAQGDDMVCDDPEAGEMTSENLVQTAPKKKKNKGKKGLEPSQSTAAKVPKKAKTWIPEVHDQKADVSAWKDLFVPRPVLRALSFLGFSAPTPIQALTLAPAIRDKLDILGAAETGSGKTLAFAIPMIHAVLQWQKRNAAPPPSNTEAPPGETRTEAGAETRSPGKAEAESDALPDDTVIESEALPSDIAAEARAKTGGTVSDQALLFGDDDAGEGPSSLIREKPVPKQNENEEENLDKEQTGNLKQELDDKSATCKAYPKRPLLGLVLTPTRELAVQVKQHIDAVARFTGIKTAILVGGMSTQKQQRMLNRRPEIVVATPGRLWELIKEKHYHLRNLRQLRCLVVDEADRMVEKGHFAELSQLLEMLNDSQYNPKRQTLVFSATLTLVHQAPARILHKKHTKKMDKTAKLDLLMQKIGMRGKPKVIDLTRNEATVETLTETKIHCETDEKDFYLYYFLMQYPGRSLVFANSISCIKRLSGLLKVLDIMPLTLHACMHQKQRLRNLEQFARLEDCVLLATDVAARGLDIPKVQHVIHYQVPRTSEIYVHRSGRTARATNEGLSLMLIGPEDVINFKKIYKTLKKDEDIPLFPVQTKYMDVVKERIRLARQIEKSEYRNFQACLHNSWIEQAAAALEIELEEDMYKGGKADQQEERRRQKQMKVLKKELRHLLSQPLFTESQKTKYPTQSGKPPLLVSAPSKSESALSCLSKQKKKKTKKPKEPQPEQPQPSTSAN

Target: cyclin-dependent kinase inhibitor 2A protein (human (endogenous in SiHa)) (UniProt P42771)
Assay: affinity purification with mass spectrometry; anti-p16 and IgG immunoprecipitates from SiHa lysate, digested in-gel and in-solution, LC-MS/MS; hits found in both workflows with anti-p16 but not with IgG, FDR < 1%

Molecule	binding
Complement component 1 Q subcomponent-binding protein, mitochondrial (from UniProt Q07021 74-282)	binds
U5 small nuclear ribonucleoprotein 200 kDa helicase (from UniProt O75643 1-2136)	binds
A-kinase anchor protein 8 (from UniProt O43823 1-692)	binds
B1	binds
B2	binds
B3	binds
B4	binds
B5	binds
B6	binds
B7	binds

These are yes or no findings as the source states them, for the method shown. In cells and extracts the contact can be indirect. A yes stands for co-enrichment or nearness to the bait. Other partners may have been found.
